{
  "sequences": {"note": "The chains behind the UniProt entries cited, without tags or fusion partners. Residues count along the entry.", "UniProt P05088, residues 22-275": "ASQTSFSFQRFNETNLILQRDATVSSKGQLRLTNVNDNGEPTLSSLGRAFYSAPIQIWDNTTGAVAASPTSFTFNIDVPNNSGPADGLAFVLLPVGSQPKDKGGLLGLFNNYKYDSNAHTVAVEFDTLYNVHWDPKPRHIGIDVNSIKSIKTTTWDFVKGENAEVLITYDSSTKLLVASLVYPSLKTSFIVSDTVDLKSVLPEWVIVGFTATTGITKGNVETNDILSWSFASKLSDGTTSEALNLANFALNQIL"},
  "source": "paper PMC1635730",
  "molecular_target": "native MUC16 partially purified from OVCAR-3 cell culture media (human (endogenous in OVCAR-3)) (UniProt Q8WXI7)",
  "experiment": "far-Western, overlay or dot blot; MUC16 (200 U of CA125/blot) on PVDF, blocked with BSA, incubated with biotinylated lectins (10 ug/ml) for 2 h at 25°C, then probed with recombinant bacterial mesothelin; detected with MN antibody; both purified",
  "note": "These are yes or no findings as the source states them, for the method shown. A result given as binding can be weak or reduced; the word gives no strength.",
  "data": [
    {"substance": "erythroagglutinating phytohemagglutinin (from UniProt P05088 22-275)", "values": [
      {"measurement": "binding", "result": "binds"}
    ]}
  ]
}
